Earlier results, collected in US20260217705A1, “POLYMORPHS OF THE HYDROBROMIDE SALT OF LINAPRAZAN GLURATE” (CINCLUS PHARMA HOLDING AB (PUBL), priority 2023, published 2026).
At least one structure is not confirmed: it was looked up by name or label, or the drawing left a doubt.

Key:
[1] = cited from earlier work
[2] = cited from earlier work; remark: listed apart in the source

## Cc1cccc(C)c1CNc1cc(C(=O)NCCOC(=O)CCCC(=O)O)cn2c(C)c(C)nc12 [Form A of the free base]
[1]
  hygroscopicity: very low hygroscopicity
[2]
  physical and chemical stability: good physical and chemical stability
